Data taken from patent publication US20170158763A1.
Results are given in words; binding and its absence hold for the method and conditions named. Some binding calls cover weakened binding; strength is not graded here.

Sequences of proteins named here, by UniProt entry; tags and fusion partners are left off. A change or cut given only in a name is not applied to a line headed by its entry.
UniProt P43630: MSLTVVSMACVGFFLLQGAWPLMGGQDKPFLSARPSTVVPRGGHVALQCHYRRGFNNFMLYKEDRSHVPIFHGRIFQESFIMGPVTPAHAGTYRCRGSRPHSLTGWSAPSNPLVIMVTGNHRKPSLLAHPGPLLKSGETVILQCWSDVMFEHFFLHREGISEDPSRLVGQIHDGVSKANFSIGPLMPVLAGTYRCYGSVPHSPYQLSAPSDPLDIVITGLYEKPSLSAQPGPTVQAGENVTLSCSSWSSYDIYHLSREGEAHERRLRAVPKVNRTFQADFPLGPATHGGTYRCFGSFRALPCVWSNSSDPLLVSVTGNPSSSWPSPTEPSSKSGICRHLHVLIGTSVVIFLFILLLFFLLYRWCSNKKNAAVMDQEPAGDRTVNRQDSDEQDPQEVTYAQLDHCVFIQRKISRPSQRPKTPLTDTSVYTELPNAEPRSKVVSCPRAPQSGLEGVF

What was measured:
[1] = target: KIR3DL2 (as expressed on RAJI-KIR3DL2 cells) (human) (UniProt P43630); test: flow cytometry titration on RAJI-KIR3DL2 cells, goat anti-human-PE detection
[2] = target: KIR3DL2 (as expressed on RAJI-KIR3DL2 cells) (human) (UniProt P43630); test: binding assay of Example 1 at two mAb concentrations, compared with chimeric 2B12
[3] = target: KIR3DL2 (as expressed on RAJI-KIR3DL2 cells) (human) (UniProt P43630); test: binding assay of Example 1 at two mAb concentrations, compared with chimeric 10G5

| binding [1] | binding [2] | binding [3] | Binder |
| --- | --- | --- | --- |
| binds | binds |  | 2B12-H4L1 (antibody, human IgG1, V domains shown) VH: QIQLVQSGSELKKPGASVKVSCKASGYTFTTAGMQWVQKTPGKGLEWIGWINSHSGVPKYAEDFKGRFAFSLDTSASTAYLQISSLKAEDTAVYFCARGGDEGVMDYWGQGTSVTVSS VL: DIQMTQSPSFLSASVGDRVTITCKASQDVSTAVAWYQQKPGQPPKLLIYWTSTRHTGVPDRFSGSGSGTDYTLTISSLQAEDVAVYYCQQHYSTPWTFGGGTKVEIK |
| binds | binds |  | 2B12-H3L3 (antibody, human IgG1, V domains shown) VH: QIQLVQSGSELKKPGASVKVSCKASGYTFTTAGMQWVQKSPGQGLEWIGWINSHSGVPKYAEDFKGRFAFSLDTSVSTAYLQISSLKAEDTAVYFCARGGDEGVMDYWGQGTTVTVSS VL: DIVMTQSPSFLSASVGDRVTFTCKASQDVSTAVAWYQQKPGQSPKLLIYWTSTRHTGVPDRFSGSGSGTDYTLTISSVQAEDVAVYYCQQHYSTPWTFGGGTKVEIK |
| binds | binds |  | 2B12-H4L3 (antibody, human IgG1, V domains shown) VH: QIQLVQSGSELKKPGASVKVSCKASGYTFTTAGMQWVQKTPGKGLEWIGWINSHSGVPKYAEDFKGRFAFSLDTSASTAYLQISSLKAEDTAVYFCARGGDEGVMDYWGQGTSVTVSS VL: DIVMTQSPSFLSASVGDRVTFTCKASQDVSTAVAWYQQKPGQSPKLLIYWTSTRHTGVPDRFSGSGSGTDYTLTISSVQAEDVAVYYCQQHYSTPWTFGGGTKVEIK |
| binds | binds |  | 2B12-H3L1 (antibody, human IgG1, V domains shown) VH: QIQLVQSGSELKKPGASVKVSCKASGYTFTTAGMQWVQKSPGQGLEWIGWINSHSGVPKYAEDFKGRFAFSLDTSVSTAYLQISSLKAEDTAVYFCARGGDEGVMDYWGQGTTVTVSS VL: DIQMTQSPSFLSASVGDRVTITCKASQDVSTAVAWYQQKPGQPPKLLIYWTSTRHTGVPDRFSGSGSGTDYTLTISSLQAEDVAVYYCQQHYSTPWTFGGGTKVEIK |
| binds |  |  | 2B12-H/L Parental (parental chimeric 2B12) (antibody, V domains shown) VH: QIQLVQSGPELKKPGETVRISCKASGYTFTTAGMQWVQKTPGKGLKWIGWINSHSGVPKYAEDFKGRFAFSLETSASTAYLQISTLKNEDTATYFCARGGDEGVMDYWGQGTSVTVSS VL: DIVMTQSHKFMSTSLGDRVSFTCKASQDVSTAVAWYQQKPGQSPKLLIYWTSTRHTGVPDRFTGSGSGTDYTLTISSVQAEDLALYYCQQHYSTPWTFGGGTKLEIK |
| binds | binds |  | 2B12-H4L2 (antibody, human IgG1, V domains shown) VH: QIQLVQSGSELKKPGASVKVSCKASGYTFTTAGMQWVQKTPGKGLEWIGWINSHSGVPKYAEDFKGRFAFSLDTSASTAYLQISSLKAEDTAVYFCARGGDEGVMDYWGQGTSVTVSS VL: DIVMTQSPSFLSASVGDRVTITCKASQDVSTAVAWYQQKPGQPPKLLIYWTSTRHTGVPDRFSGSGSGTDYTLTISSVQAEDVAVYYCQQHYSTPWTFGGGTKVEIK |
| binds | binds |  | 2B12-H3L2 (antibody, human IgG1, V domains shown) VH: QIQLVQSGSELKKPGASVKVSCKASGYTFTTAGMQWVQKSPGQGLEWIGWINSHSGVPKYAEDFKGRFAFSLDTSVSTAYLQISSLKAEDTAVYFCARGGDEGVMDYWGQGTTVTVSS VL: DIVMTQSPSFLSASVGDRVTITCKASQDVSTAVAWYQQKPGQPPKLLIYWTSTRHTGVPDRFSGSGSGTDYTLTISSVQAEDVAVYYCQQHYSTPWTFGGGTKVEIK |
| binds | binds |  | 2B12-H3L4 (antibody, human IgG1, V domains shown) VH: QIQLVQSGSELKKPGASVKVSCKASGYTFTTAGMQWVQKSPGQGLEWIGWINSHSGVPKYAEDFKGRFAFSLDTSVSTAYLQISSLKAEDTAVYFCARGGDEGVMDYWGQGTTVTVSS VL: DIVMTQSHKFLSASVGDRVTFTCKASQDVSTAVAWYQQKPGQSPKLLIYWTSTRHTGVPDRFSGSGSGTDYTLTISSVQAEDVAVYYCQQHYSTPWTFGGGTKLEIK |
| binds | binds |  | 2B12-H4L4 (antibody, human IgG1, V domains shown) VH: QIQLVQSGSELKKPGASVKVSCKASGYTFTTAGMQWVQKTPGKGLEWIGWINSHSGVPKYAEDFKGRFAFSLDTSASTAYLQISSLKAEDTAVYFCARGGDEGVMDYWGQGTSVTVSS VL: DIVMTQSHKFLSASVGDRVTFTCKASQDVSTAVAWYQQKPGQSPKLLIYWTSTRHTGVPDRFSGSGSGTDYTLTISSVQAEDVAVYYCQQHYSTPWTFGGGTKLEIK |
| binds |  | binds | 10G5-H3L2 (antibody, human IgG1, V domains shown) VH: QVQLVQSGAEVKKPGASVKVSCKASGYTFTSYTMHWVRQAPGQGLEWIGYINPSSGYTENNRKFKDKTTMTADTSTSTAYMELSSLRSEDTAVYYCARLGKGLLPPFDYWGQGTTVTVSS VL: DIQMTQSPSSLSASVGDRVTITCRASENIYSNLAWYQQKPGKAPQLLVYAATNLADGVPSRFSGSGSGTDYTLTISSLQPEDFATYYCQHFWGTPYTFGGGTKLEIK |
| binds |  | binds | 10G5-H5L3 (antibody, human IgG1, V domains shown) VH: QVQLVQSGAELARPGASVKVSCKASGYTFTSYTMHWVRQAPGQGLEWIGYINPSSGYTENNRKFKDKTTLTADKSTSTAYMELSSLRSEDTAVYYCARLGKGLLPPFDYWGQGTTVTVSS VL: DIQMTQSPSSLSASVGDRVTITCRASENIYSNLAWYQQKPGKAPQLLVYAATNLADGVPSRFSGSGSGTQYTLTISSLQPEDFATYYCQHFWGTPYTFGGGTKLEIK |
| binds |  | binds | 10G5-H5L4 (antibody, human IgG1, V domains shown) VH: QVQLVQSGAELARPGASVKVSCKASGYTFTSYTMHWVRQAPGQGLEWIGYINPSSGYTENNRKFKDKTTLTADKSTSTAYMELSSLRSEDTAVYYCARLGKGLLPPFDYWGQGTTVTVSS VL: DIQMTQSPSSLSASVGDRVTITCRASENIYSNLAWYQQKQGKAPQLLVYAATNLADGVPSRFSGSGSGTQYTLTINSLQPEDFATYYCQHFWGTPYTFGGGTKLEIK |

Second part, the binder before the results:

| Binder | binding [1] | binding [2] | binding [3] |
| --- | --- | --- | --- |
| 2B12-H2L2 (antibody, human IgG1, V domains shown) VH: QIQLVQSGSELKKPGASVKVSCKASGYTFTTAGMQWVRQAPGQGLEWIGWINSHSGVPKYAEDFKGRFVFSLDTSVSTAYLQISSLKAEDTAVYFCARGGDEGVMDYWGQGTTVTVSS VL: DIVMTQSPSFLSASVGDRVTITCKASQDVSTAVAWYQQKPGQPPKLLIYWTSTRHTGVPDRFSGSGSGTDYTLTISSVQAEDVAVYYCQQHYSTPWTFGGGTKVEIK | binds | binds |  |
| 2B12-H2L3 (antibody, human IgG1, V domains shown) VH: QIQLVQSGSELKKPGASVKVSCKASGYTFTTAGMQWVRQAPGQGLEWIGWINSHSGVPKYAEDFKGRFVFSLDTSVSTAYLQISSLKAEDTAVYFCARGGDEGVMDYWGQGTTVTVSS VL: DIVMTQSPSFLSASVGDRVTFTCKASQDVSTAVAWYQQKPGQSPKLLIYWTSTRHTGVPDRFSGSGSGTDYTLTISSVQAEDVAVYYCQQHYSTPWTFGGGTKVEIK | binds | binds |  |
| 2B12-H2L4 (antibody, human IgG1, V domains shown) VH: QIQLVQSGSELKKPGASVKVSCKASGYTFTTAGMQWVRQAPGQGLEWIGWINSHSGVPKYAEDFKGRFVFSLDTSVSTAYLQISSLKAEDTAVYFCARGGDEGVMDYWGQGTTVTVSS VL: DIVMTQSHKFLSASVGDRVTFTCKASQDVSTAVAWYQQKPGQSPKLLIYWTSTRHTGVPDRFSGSGSGTDYTLTISSVQAEDVAVYYCQQHYSTPWTFGGGTKLEIK | binds | binds |  |
| 2B12-H1L4 (antibody, human IgG1, V domains shown) VH: QVQLVQSGSELKKPGASVKVSCKASGYTFTTAGMQWVQKSPGQGLEWMGWINSHSGVPKYAEDFKGRFVFSLDTSVSTAYLQISSLKAEDTAVYFCARGGDEGVMDYWGQGTTVTVSS VL: DIVMTQSHKFLSASVGDRVTFTCKASQDVSTAVAWYQQKPGQSPKLLIYWTSTRHTGVPDRFSGSGSGTDYTLTISSVQAEDVAVYYCQQHYSTPWTFGGGTKLEIK | binds | binds |  |
| 2B12-H1L2 (antibody, human IgG1, V domains shown) VH: QVQLVQSGSELKKPGASVKVSCKASGYTFTTAGMQWVQKSPGQGLEWMGWINSHSGVPKYAEDFKGRFVFSLDTSVSTAYLQISSLKAEDTAVYFCARGGDEGVMDYWGQGTTVTVSS VL: DIVMTQSPSFLSASVGDRVTITCKASQDVSTAVAWYQQKPGQPPKLLIYWTSTRHTGVPDRFSGSGSGTDYTLTISSVQAEDVAVYYCQQHYSTPWTFGGGTKVEIK | binds | binds |  |
| 2B12-H2L1 (antibody, human IgG1, V domains shown) VH: QIQLVQSGSELKKPGASVKVSCKASGYTFTTAGMQWVRQAPGQGLEWIGWINSHSGVPKYAEDFKGRFVFSLDTSVSTAYLQISSLKAEDTAVYFCARGGDEGVMDYWGQGTTVTVSS VL: DIQMTQSPSFLSASVGDRVTITCKASQDVSTAVAWYQQKPGQPPKLLIYWTSTRHTGVPDRFSGSGSGTDYTLTISSLQAEDVAVYYCQQHYSTPWTFGGGTKVEIK | binds | binds |  |
| 2B12-H1L1 (antibody, human IgG1, V domains shown) VH: QVQLVQSGSELKKPGASVKVSCKASGYTFTTAGMQWVQKSPGQGLEWMGWINSHSGVPKYAEDFKGRFVFSLDTSVSTAYLQISSLKAEDTAVYFCARGGDEGVMDYWGQGTTVTVSS VL: DIQMTQSPSFLSASVGDRVTITCKASQDVSTAVAWYQQKPGQPPKLLIYWTSTRHTGVPDRFSGSGSGTDYTLTISSLQAEDVAVYYCQQHYSTPWTFGGGTKVEIK | binds | binds |  |
| 2B12-H1L3 (antibody, human IgG1, V domains shown) VH: QVQLVQSGSELKKPGASVKVSCKASGYTFTTAGMQWVQKSPGQGLEWMGWINSHSGVPKYAEDFKGRFVFSLDTSVSTAYLQISSLKAEDTAVYFCARGGDEGVMDYWGQGTTVTVSS VL: DIVMTQSPSFLSASVGDRVTFTCKASQDVSTAVAWYQQKPGQSPKLLIYWTSTRHTGVPDRFSGSGSGTDYTLTISSVQAEDVAVYYCQQHYSTPWTFGGGTKVEIK | binds | binds |  |
